This test has as its target transcription factor E2f4 (endogenous, mouse) (mouse (endogenous in p19/Nras)) (UniProt Q8R0K9). In words: affinity purification with mass spectrometry; IP of endogenous E2f4 (Proteintech 10923-1-AP) against isotype control IgG from TNT-150 lysates of Trim33-WT and Trim33-KO p19/Nras cells, LC-MS/MS, three independent reactions.

Sequences of proteins named here, by UniProt entry; tags and fusion partners are left off.
UniProt Q8R0K9: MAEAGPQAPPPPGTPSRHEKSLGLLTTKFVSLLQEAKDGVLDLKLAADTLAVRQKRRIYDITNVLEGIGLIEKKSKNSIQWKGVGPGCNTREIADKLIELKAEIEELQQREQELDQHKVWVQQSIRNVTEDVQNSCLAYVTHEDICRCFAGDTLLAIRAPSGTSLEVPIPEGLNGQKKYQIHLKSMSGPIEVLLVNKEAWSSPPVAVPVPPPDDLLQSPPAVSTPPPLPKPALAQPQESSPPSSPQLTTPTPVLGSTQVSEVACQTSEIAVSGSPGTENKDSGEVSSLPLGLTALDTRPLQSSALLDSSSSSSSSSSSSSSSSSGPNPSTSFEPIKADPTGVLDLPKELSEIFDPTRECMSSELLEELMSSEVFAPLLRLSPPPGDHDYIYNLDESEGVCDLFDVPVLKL
UniProt A2BH40: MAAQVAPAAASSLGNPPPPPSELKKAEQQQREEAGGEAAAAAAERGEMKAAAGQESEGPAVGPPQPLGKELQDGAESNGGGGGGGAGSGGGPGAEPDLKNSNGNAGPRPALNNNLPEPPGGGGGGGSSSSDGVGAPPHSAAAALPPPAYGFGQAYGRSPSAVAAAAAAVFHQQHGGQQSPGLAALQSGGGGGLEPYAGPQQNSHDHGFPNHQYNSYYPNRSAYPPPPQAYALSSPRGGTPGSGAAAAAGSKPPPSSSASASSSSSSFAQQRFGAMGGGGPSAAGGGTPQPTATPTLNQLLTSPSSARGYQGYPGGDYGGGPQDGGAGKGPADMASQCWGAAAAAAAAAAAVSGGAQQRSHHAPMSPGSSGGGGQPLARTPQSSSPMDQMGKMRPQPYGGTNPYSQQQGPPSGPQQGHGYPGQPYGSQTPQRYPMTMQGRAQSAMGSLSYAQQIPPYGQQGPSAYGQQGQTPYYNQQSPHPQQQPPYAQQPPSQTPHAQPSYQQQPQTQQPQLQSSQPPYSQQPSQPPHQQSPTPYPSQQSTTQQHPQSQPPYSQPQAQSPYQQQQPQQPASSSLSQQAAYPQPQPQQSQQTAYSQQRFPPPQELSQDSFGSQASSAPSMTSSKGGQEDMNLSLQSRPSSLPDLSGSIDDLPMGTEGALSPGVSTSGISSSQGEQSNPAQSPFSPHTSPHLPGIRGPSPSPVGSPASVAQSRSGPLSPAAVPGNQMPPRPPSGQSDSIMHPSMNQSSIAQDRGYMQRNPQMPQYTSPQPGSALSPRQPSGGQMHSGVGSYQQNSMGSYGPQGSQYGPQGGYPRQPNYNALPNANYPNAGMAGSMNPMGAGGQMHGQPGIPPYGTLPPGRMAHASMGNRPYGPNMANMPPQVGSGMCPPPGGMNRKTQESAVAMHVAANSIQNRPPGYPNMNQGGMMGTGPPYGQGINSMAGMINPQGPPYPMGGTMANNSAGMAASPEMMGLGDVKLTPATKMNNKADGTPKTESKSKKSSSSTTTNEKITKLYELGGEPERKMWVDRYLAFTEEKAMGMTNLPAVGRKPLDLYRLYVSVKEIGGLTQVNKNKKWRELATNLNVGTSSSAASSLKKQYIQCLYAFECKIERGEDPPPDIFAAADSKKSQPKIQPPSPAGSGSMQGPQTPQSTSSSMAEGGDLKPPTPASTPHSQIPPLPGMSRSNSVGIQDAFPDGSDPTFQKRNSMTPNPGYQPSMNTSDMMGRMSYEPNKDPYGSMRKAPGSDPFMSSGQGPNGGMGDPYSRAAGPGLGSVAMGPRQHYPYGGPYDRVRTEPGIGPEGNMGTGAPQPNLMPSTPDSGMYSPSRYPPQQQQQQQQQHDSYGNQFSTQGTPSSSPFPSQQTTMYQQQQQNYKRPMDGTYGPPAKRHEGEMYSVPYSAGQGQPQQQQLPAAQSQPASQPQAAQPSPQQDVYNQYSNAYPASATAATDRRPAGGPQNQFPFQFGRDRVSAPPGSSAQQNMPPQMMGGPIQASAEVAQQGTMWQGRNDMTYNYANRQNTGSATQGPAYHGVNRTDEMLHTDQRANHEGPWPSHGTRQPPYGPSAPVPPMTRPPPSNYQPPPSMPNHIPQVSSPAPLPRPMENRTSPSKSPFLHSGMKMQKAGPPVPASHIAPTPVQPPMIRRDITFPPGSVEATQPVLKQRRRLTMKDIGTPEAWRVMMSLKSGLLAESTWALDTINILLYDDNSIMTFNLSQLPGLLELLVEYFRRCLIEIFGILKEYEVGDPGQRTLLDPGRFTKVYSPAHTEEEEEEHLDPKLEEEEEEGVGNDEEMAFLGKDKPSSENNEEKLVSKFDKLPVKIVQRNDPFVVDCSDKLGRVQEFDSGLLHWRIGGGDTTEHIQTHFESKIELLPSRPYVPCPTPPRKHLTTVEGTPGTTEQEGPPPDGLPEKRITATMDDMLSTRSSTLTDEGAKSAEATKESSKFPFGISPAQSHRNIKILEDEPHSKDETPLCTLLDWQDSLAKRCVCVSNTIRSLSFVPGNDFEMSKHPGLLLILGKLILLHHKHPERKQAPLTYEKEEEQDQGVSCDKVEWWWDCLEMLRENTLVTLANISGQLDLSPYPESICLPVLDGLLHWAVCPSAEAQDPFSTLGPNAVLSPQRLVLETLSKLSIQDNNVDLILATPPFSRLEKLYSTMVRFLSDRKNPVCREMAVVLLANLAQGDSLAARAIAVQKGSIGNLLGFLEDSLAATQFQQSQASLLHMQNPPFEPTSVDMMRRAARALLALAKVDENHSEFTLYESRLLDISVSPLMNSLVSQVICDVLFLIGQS

No constants are given. Whether binding was seen depends on the method and setting. In cells and extracts the contact can be indirect. Here binding means that the protein was enriched with, or labelled near, the bait; the list need not be complete.

Regarding “Arid1a (endogenous, mouse) (from UniProt A2BH40 1-2283)”, the binding entry is “binds”.

The values are drawn from article PMC10447549.
